Here are results for two substances from publication PMC9012282.

Protein sequences, listed by entry. Tags and fused reporters are not part of them.
UniProt Q86WI3: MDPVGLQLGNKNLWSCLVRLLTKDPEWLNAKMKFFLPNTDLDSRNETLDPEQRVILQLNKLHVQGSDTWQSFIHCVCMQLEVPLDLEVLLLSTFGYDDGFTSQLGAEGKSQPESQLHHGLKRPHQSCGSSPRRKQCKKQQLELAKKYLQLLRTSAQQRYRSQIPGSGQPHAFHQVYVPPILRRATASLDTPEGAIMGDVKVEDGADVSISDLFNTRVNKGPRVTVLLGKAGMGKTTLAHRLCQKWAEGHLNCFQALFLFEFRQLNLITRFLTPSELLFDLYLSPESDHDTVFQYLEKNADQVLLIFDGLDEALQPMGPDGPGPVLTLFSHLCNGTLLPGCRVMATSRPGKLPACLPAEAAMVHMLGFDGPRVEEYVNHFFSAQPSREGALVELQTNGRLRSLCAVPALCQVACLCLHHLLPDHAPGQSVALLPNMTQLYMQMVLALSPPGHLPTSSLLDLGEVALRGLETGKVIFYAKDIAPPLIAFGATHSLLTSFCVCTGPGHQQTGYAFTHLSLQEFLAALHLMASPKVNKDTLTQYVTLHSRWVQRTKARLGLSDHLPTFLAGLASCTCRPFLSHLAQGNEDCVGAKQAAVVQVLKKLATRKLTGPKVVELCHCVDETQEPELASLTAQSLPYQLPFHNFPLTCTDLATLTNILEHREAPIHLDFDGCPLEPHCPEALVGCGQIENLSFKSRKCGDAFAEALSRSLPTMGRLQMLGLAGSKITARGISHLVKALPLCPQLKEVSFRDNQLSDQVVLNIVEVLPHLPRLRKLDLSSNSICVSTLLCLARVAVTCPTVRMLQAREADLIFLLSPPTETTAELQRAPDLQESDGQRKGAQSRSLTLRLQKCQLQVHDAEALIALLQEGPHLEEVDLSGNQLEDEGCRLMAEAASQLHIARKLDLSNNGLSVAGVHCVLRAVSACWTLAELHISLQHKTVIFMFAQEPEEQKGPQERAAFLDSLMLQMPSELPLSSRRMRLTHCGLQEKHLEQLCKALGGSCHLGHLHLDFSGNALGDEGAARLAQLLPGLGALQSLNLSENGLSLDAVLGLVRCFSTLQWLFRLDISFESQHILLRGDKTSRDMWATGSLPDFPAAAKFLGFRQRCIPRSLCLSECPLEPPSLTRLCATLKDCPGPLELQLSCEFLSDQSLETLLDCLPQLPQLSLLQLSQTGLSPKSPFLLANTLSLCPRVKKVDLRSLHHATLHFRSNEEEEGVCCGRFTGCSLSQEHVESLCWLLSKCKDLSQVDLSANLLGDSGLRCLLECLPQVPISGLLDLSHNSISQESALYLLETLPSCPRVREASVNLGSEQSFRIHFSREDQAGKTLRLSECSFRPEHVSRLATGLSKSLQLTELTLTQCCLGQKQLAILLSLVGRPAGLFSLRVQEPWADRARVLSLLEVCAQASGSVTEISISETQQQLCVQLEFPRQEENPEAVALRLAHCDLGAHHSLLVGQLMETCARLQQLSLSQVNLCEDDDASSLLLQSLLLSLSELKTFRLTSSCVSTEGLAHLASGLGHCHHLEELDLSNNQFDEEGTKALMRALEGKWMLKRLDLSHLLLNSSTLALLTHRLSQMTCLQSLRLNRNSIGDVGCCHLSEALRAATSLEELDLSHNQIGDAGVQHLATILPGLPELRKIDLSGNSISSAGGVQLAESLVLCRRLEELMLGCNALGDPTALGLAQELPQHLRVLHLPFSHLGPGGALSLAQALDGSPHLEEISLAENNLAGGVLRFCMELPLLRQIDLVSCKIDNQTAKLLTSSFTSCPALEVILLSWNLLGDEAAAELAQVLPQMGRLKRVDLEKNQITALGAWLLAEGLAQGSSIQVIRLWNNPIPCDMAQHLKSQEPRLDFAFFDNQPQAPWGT
UniProt O96028: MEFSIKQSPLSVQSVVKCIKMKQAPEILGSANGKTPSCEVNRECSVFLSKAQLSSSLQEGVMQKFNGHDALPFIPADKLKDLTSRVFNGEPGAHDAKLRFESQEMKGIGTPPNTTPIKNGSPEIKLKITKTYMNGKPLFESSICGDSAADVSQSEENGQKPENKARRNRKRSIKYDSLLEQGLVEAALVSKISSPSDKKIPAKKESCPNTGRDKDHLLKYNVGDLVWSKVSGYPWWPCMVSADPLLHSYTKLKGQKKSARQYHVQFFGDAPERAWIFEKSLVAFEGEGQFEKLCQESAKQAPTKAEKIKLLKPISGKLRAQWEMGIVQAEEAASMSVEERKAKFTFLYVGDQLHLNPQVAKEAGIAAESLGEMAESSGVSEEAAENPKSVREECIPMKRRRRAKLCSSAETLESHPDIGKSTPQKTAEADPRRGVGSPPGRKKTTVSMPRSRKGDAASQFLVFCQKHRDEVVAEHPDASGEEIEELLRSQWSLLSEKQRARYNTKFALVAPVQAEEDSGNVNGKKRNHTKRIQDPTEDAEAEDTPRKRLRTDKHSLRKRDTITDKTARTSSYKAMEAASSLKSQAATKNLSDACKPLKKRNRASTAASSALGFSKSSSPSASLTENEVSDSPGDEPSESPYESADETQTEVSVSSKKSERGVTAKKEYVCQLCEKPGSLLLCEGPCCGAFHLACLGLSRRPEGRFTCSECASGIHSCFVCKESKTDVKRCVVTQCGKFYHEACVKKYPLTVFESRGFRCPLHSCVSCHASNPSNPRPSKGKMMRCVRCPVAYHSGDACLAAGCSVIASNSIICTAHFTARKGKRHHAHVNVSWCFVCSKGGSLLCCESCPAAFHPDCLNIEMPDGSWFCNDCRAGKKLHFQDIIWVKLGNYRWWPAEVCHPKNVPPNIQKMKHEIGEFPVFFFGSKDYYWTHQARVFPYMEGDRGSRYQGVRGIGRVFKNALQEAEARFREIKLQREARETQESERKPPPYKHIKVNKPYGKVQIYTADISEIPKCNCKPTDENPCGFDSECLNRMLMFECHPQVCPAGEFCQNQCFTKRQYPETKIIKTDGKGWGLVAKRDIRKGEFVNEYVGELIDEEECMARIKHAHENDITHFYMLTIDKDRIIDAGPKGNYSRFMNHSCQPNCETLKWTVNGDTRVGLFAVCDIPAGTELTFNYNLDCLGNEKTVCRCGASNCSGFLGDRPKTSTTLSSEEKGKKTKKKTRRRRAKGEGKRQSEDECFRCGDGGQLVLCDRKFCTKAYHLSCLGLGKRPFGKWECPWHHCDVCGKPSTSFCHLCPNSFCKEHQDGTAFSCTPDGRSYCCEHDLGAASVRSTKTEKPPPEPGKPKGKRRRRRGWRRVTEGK

Results are given in words; binding and its absence hold for the method and conditions named. Binding seen in cells or lysates may run through a third protein. Some entries that bind do so weakly or less than the wild type.

Experiment [1] deals with NLRC5 of the in vitro binding assay (UniProt Q86WI3). The experiment in a line: pull-down; in vitro binding assay (Supplemental Figure 4E); the methods name GST pull-down assays, details in the Supplemental Methods.
In experiment [2] the target is T1, IFN regulatory factor 1 (IRF-1), in 293T cells (UniProt P10914).
T1 sequence: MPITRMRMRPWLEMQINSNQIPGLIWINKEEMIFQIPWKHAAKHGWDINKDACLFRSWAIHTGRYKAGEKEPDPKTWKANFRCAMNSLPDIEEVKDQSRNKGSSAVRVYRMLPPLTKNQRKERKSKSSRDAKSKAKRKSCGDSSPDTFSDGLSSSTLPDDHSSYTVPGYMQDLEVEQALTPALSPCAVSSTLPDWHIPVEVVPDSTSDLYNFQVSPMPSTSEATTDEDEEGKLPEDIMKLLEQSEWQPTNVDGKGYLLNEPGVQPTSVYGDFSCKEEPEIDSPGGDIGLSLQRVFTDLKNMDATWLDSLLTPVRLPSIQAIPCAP
The experiment in a line: co-IP; exogenous WHSC1 in 293T cells; immunoblot of 293T cell immunoprecipitates. On the technique in general: A western blot detects proteins with antibodies after separation by electrophoresis.

Experiment [3] addresses NOD-like receptor (NLR) family, caspase recruitment domain-containing 5 (NLRC5), in 293T cells (UniProt Q86WI3). Described as above.

On to “WHSC1 of the in vitro binding assay (from UniProt O96028 1-1365)”, for which, in experiment [1], the binding entry is “binds”.

As to “Wolf-Hirschhorn syndrome candidate 1 (WHSC1), exogenous (from UniProt O96028 1-1365)”, the binding entry is “no binding” in experiment [2] and “binds” in experiment [3].
